Test results reported in the supplement of paper PMC10849652.
This is one part of the list.

Protein sequences, listed by entry. Tags and fused reporters are not part of them. Lines headed by an entry give the natural chain unless they say otherwise; changes in a name come on top.
UniProt Q05707: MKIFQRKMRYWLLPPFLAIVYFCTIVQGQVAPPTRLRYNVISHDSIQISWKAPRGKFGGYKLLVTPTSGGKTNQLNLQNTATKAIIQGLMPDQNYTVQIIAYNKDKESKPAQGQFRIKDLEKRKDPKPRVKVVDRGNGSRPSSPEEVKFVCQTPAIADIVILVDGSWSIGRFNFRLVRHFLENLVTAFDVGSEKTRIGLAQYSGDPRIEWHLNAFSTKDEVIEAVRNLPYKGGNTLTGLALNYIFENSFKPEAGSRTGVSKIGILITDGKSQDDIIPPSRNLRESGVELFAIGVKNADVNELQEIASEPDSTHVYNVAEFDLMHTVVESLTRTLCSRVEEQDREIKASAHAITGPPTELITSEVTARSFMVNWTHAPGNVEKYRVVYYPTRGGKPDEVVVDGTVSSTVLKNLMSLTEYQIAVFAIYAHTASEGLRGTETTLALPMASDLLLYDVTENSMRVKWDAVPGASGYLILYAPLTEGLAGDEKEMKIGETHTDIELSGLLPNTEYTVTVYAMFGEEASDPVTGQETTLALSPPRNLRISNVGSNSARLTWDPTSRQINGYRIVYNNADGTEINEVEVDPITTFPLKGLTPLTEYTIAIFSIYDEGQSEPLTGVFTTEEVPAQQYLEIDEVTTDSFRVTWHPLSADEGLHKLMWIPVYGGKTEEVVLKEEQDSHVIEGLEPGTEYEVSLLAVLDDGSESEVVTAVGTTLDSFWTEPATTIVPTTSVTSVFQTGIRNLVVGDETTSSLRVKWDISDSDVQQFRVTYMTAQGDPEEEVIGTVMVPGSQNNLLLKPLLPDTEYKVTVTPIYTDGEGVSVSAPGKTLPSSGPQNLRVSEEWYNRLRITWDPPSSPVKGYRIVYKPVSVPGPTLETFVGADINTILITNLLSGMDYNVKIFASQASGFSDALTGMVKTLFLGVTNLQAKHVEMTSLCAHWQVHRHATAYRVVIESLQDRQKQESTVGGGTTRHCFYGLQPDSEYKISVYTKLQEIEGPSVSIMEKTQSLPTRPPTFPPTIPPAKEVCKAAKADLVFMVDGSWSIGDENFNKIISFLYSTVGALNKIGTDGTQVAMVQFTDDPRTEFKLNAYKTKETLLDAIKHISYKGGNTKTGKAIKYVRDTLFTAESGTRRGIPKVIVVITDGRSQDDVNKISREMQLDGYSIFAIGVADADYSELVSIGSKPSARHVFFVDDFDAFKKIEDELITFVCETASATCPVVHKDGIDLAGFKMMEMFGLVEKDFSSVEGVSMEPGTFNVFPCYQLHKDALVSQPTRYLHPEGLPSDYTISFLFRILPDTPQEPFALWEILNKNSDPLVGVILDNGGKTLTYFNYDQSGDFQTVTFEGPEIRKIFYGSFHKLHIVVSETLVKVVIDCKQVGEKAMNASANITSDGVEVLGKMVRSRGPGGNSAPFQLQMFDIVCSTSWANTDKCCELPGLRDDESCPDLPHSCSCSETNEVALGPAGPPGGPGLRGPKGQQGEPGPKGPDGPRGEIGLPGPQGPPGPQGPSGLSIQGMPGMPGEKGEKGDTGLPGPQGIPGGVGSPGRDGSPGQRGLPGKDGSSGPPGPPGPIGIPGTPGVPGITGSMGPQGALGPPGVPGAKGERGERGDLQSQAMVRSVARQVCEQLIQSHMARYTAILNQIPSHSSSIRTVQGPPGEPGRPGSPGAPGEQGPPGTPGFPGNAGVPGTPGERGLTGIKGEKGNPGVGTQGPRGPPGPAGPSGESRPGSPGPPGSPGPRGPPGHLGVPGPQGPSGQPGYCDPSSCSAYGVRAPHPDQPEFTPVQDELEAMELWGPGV
UniProt Q14061: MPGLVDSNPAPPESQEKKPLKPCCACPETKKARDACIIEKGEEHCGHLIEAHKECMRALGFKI
UniProt Q9BXS0: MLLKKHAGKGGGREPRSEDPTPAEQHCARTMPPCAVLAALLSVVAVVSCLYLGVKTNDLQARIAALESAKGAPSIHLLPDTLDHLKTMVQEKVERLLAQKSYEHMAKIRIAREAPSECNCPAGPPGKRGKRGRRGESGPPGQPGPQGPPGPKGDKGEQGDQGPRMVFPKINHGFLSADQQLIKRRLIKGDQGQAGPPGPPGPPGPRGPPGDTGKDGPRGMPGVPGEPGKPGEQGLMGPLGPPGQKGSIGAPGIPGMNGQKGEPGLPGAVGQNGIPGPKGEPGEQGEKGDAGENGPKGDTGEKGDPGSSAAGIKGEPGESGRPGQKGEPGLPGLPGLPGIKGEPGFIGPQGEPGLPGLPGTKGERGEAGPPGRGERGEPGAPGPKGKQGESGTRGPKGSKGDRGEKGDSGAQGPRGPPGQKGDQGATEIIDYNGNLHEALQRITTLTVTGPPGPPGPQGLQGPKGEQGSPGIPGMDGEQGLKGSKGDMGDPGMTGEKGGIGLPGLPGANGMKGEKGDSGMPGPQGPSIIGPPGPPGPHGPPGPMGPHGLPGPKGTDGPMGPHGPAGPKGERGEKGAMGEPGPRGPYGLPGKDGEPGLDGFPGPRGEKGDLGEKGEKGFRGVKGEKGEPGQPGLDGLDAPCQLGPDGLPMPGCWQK
UniProt Q9BWP8: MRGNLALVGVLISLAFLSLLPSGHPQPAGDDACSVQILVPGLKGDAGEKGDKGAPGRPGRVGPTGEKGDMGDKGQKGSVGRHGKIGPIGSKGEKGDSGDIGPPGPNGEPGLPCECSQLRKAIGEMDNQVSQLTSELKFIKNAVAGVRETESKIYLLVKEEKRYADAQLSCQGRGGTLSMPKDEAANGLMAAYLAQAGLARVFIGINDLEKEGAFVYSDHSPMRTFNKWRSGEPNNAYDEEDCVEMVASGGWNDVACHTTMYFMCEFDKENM
UniProt Q96F85: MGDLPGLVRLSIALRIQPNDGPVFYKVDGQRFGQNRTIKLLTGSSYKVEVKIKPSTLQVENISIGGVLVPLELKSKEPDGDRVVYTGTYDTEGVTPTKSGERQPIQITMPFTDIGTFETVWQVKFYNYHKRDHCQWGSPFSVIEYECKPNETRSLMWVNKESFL
UniProt P61201: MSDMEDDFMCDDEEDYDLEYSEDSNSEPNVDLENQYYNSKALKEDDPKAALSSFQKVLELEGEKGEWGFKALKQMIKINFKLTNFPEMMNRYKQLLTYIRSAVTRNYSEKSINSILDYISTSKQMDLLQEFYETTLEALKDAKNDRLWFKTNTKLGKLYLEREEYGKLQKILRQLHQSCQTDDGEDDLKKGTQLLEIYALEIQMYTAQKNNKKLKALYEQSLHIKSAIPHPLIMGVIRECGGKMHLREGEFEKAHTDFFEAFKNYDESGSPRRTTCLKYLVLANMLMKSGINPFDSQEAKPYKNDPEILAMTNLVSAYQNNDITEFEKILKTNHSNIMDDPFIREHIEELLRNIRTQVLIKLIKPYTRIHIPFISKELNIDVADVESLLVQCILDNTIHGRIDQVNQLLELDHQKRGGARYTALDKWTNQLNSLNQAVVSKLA
UniProt Q9BU20: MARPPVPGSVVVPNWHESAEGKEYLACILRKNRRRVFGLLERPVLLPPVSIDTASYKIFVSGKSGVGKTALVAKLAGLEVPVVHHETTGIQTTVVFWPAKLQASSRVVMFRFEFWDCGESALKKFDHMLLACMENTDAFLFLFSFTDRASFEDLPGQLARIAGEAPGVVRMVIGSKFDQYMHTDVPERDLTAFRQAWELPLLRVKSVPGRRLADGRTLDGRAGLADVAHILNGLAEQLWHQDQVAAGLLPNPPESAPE
UniProt Q96D53: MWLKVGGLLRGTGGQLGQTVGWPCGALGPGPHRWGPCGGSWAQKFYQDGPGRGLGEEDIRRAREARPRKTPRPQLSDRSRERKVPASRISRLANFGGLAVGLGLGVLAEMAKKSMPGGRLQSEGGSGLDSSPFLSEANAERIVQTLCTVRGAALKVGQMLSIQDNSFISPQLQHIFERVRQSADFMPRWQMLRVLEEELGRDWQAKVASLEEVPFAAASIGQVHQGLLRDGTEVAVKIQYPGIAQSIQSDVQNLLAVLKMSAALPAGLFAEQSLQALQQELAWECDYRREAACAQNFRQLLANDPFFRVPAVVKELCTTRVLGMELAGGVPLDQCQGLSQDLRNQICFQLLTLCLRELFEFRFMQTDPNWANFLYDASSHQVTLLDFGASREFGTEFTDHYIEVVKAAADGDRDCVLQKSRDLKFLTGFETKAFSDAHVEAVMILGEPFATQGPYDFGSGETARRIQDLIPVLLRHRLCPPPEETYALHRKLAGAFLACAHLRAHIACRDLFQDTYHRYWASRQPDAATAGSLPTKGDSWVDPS
UniProt Q96I36: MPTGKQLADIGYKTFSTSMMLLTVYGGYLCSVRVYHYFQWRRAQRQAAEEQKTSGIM
UniProt Q8N4Y2: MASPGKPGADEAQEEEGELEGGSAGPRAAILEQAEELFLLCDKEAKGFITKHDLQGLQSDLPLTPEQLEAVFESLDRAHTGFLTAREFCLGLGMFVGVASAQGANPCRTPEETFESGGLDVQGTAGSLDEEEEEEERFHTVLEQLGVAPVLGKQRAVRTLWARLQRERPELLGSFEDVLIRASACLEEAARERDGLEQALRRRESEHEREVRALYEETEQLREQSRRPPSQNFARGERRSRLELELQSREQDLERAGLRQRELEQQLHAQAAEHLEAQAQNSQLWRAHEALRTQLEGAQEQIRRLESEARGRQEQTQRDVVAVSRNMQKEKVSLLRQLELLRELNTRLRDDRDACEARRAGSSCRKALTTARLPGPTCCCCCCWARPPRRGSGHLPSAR
UniProt Q7Z4G1, whole entry, looked up: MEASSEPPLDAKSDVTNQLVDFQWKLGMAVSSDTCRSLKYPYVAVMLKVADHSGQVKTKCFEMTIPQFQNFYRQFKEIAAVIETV
UniProt Q9H8M5: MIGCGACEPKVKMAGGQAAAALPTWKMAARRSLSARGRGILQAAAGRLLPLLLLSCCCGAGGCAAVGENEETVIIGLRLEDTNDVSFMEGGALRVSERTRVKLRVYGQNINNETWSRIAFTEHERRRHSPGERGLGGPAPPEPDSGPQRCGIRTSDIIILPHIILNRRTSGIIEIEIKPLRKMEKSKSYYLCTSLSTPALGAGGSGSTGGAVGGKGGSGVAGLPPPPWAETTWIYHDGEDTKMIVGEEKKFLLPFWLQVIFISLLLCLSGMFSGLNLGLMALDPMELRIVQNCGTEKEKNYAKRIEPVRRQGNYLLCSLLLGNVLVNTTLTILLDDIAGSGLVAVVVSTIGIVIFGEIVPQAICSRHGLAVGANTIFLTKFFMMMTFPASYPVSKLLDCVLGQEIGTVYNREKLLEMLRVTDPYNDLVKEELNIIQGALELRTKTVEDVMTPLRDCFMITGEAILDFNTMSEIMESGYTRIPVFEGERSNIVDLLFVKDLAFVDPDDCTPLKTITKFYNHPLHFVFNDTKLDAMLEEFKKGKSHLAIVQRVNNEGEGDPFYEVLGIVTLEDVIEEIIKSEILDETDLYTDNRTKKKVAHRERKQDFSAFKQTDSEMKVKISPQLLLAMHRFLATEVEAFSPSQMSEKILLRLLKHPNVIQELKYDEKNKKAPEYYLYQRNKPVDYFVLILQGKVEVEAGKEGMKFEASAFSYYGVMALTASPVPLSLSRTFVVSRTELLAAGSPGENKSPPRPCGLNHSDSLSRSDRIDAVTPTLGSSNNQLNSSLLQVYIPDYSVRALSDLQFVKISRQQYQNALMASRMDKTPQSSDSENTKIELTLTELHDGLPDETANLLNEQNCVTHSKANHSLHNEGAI
UniProt Q8WXC6: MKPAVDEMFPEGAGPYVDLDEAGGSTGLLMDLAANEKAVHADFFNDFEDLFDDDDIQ
UniProt G9CGD6: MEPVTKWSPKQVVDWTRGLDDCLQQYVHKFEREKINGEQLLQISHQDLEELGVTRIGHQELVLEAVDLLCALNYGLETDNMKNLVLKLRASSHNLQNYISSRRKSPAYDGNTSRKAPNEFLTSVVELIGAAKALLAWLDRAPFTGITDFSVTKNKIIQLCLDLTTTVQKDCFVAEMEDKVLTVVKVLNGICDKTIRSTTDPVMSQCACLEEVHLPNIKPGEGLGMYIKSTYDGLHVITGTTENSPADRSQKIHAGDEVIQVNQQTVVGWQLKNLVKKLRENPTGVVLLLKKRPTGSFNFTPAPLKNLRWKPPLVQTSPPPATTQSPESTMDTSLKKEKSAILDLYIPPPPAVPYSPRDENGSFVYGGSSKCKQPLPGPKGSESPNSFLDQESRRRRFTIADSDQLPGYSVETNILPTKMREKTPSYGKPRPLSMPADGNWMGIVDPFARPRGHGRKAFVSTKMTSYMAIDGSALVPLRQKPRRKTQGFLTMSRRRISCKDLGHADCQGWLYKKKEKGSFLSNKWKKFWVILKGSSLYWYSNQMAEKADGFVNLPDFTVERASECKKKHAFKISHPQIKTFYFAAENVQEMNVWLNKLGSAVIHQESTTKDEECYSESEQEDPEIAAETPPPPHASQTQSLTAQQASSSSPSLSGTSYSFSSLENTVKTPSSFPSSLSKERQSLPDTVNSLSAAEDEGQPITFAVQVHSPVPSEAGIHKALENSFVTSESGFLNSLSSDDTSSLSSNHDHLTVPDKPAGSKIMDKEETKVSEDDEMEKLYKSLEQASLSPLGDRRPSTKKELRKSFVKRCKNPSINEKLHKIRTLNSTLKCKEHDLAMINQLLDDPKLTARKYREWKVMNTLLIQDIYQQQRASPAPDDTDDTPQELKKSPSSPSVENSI

Assays:
Assay in all cases: log2 fold change, soluble protein after heating vs DMSO (PISA); higher = thermal stabilisation; K562 lysate, 10 uM; active = over 0.2 and 3.5 SD of the protein, either way, in both replicates (recomputed)
erlotinib = compound: C#Cc1cccc(Nc2ncnc3cc(OCCOC)c(OCCOC)cc23)c1 [erlotinib]
Procedure, shortened: (§1)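 Quantification was by TMTpro 16plex LC-MS/MS with equalised channel sums, applied to the supernatant after 21,000xg for 90 min. Samples were crude K562 extract at 1 mg/mL protein in PBS pH 7.4 with 1 mM MgCl2, treated with 10 μM compound for 30 min, heated for 3 min across 48°C-58°C, pooled and brought to 0.5% NP-40 at 4°C. Values are log-two fold changes in thermal stability relative to solvent controls, from duplicates.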

[1] = compound: C1=CC(=CC=C1C2=NC3=C(N2)C=C(C=C3)C(=O)N)OC4=CC=C(C=C4)Cl
Procedure, shortened: as §1

[2] = compound: C1=CC2=NC=CN=C2C=C1/C=C/3\C(=O)NC(=O)S3
Procedure, shortened: as §1

[3] = compound: C1=CC=C(C=C1)C2=NC(=C(N2)C3=CC=NC=C3)C4=CC(=C(C=C4)Cl)O
Procedure, shortened: as §1

[4] = compound: C1CCN(C1)C(=O)NC2=CC=CC(=C2)NC3=NC=C(C(=N3)NCCC4=CN=CN4)Br
Procedure, shortened: as §1

[5] = compound: C1CN(CCC1(CC2=CC=C(C=C2)Cl)N)C3=NC=NC4=C3C=CN4
Procedure, shortened: as §1

IRAK-1-4 Inhibitor I = compound: C1COCCN1CCN2C3=CC=CC=C3N=C2NC(=O)C4=CC(=CC=C4)[N+](=O)[O-] [IRAK-1-4 Inhibitor I]
Procedure, shortened: as §1

ibrutinib = compound: C=CC(=O)N1CCC[C@@H](n2nc(-c3ccc(Oc4ccccc4)cc3)c3c(N)ncnc32)C1 [ibrutinib]
Procedure, shortened: as §1

[6] = compound: CC(=O)c1cnc2ccc(-c3cc(Cl)c(O)c(Cl)c3)nc2c1N[C@H]1CC[C@H](CN(C)C)CC1
Procedure, shortened: as §1

ralimetinib = compound: CC(C)(C)Cn1c(N)nc2ccc(-c3[nH]c(C(C)(C)C)nc3-c3ccc(F)cc3)nc21 [ralimetinib]
Procedure, shortened: as §1

[7] = compound: CC(C)(O)CC(=O)NCCn1ccc2ncnc(Nc3ccc(Oc4cccc(C(F)(F)F)c4)c(Cl)c3)c21
Procedure, shortened: as §1

[8] = compound: CC(C)C1=C2N=C(C=C(N2N=C1)NCC3=CC=CC=C3)NCCCCCCN
Procedure, shortened: as §1

[9] = compound: CC1=C(C(CC(=O)N1)C2=CC=C(C=C2)C(F)(F)F)C(=O)NC3=C(C=C4C(=C3)C=NN4)F
Procedure, shortened: as §1

[10] = compound: CC1=C(C2=C(C=C1)C(=O)C3=CC=CC=C3N2CCCN)C
Procedure, shortened: as §1

[11] = compound: CC1=C(C=C(C=C1)NC(=O)C2=CC(=CC=C2)C(C)(C)C#N)NC3=CC4=C(C=C3)N=CN(C4=O)C
Procedure, shortened: as §1

[12] = compound: CC1=C(C=C(C=C1)NC(=O)C2=CC(=CC=C2)N(C)C)NC(=O)C3=CC=C(C=C3)O
Procedure, shortened: as §1

[13] = compound: CC1=CC=C(C=C1)SC2=C3C=C(SC3=CN=C2)C(=O)N
Procedure, shortened: as §1

[14] = compound: C/C(=N\NC(=O)C1=CC(=CC=C1)S(=O)(=O)N2CCOCC2)/C3=C(C=CC(=C3)Cl)O
Procedure, shortened: as §1

[15] = compound: C1=CC2=C(C=CC(=C2)/C=C\3/C(=O)NC(=NCC4=CC=CS4)S3)N=C1
Procedure, shortened: as §1

[16] = compound: C1=CC=C2C(=C1)C3=NNC4=CC=CC(=C43)C2=O
Procedure, shortened: as §1

Target	log2 fold change (erlotinib)	log2 fold change [1]	log2 fold change [2]	log2 fold change [3]	log2 fold change [4]	log2 fold change [5]	log2 fold change (IRAK-1-4 Inhibitor I)	log2 fold change (ibrutinib)	log2 fold change [6]	log2 fold change (ralimetinib)	log2 fold change [7]	log2 fold change [8]	log2 fold change [9]	log2 fold change [10]	log2 fold change [11]	log2 fold change [12]	log2 fold change [13]	log2 fold change [14]	log2 fold change [15]	log2 fold change [16]
COMMD3-BMI1 (UniProt R4GMX3)	inactive: -0.057	inactive: 0.201	inactive: -0.115	inactive: 0.022	inactive: -0.114	inactive: 0.039	inactive: -0.141	inactive: 0.171	inactive: 0.015	inactive: 0.019	inactive: -0.046	inactive: 0.075	inactive: -0.004	inactive: -0.065	inactive: 0.054	inactive: 0.01	inactive: -0.055			
COX10 (UniProt Q12887)				inactive: 0.035	inactive: 0.093	inactive: -0.098	inactive: -0.092			inactive: -0.04	inactive: 0.037			inactive: -0.19	inactive: 0.092	inactive: -0.02				
COL14A1 (UniProt Q05707)	inactive: -0.025	inactive: -0.01	inactive: 0.018	inactive: 0.069			inactive: 0.104	inactive: -0.127	inactive: -0.023	inactive: -0.118	inactive: -0.123	inactive: 0.029	inactive: -0.092	inactive: 0.033	inactive: 0.024	inactive: 0.05	inactive: -0.021	inactive: 0.032	inactive: -0.033	inactive: 0.029
CNTRL (UniProt Q7Z7A1)	inactive: -0.003	inactive: 0.032	inactive: -0.013	inactive: 0.005	inactive: -0.011	inactive: 0.003	inactive: 0.015	inactive: -0.023		inactive: 0.007	inactive: -0.01	inactive: 0.01	inactive: 0.015	inactive: -0.005	inactive: 0.01	inactive: 0.019		inactive: -0.076	inactive: -0.089	inactive: -0.104
COX17 (UniProt Q14061)	inactive: 0.063	inactive: -0.002							inactive: -0.041			inactive: -0.069	inactive: 0.031		inactive: -0.187		inactive: 0.042			
COL25A1 (UniProt Q9BXS0)			inactive: -0.016	inactive: -0.087			inactive: 0.092	inactive: 0.177	inactive: 0.082	inactive: -0.082	inactive: -0.012		inactive: -0.024			inactive: 0.143	inactive: -0.125			
COLEC11 isoform 10 (UniProt Q9BWP8)	inactive: -0.126	inactive: -0.15	inactive: -0.008	inactive: -0.109	inactive: -0.03	inactive: -0.034	inactive: -0.053	inactive: 0.119		inactive: 0.071	inactive: 0.006	inactive: 0		inactive: 0		inactive: 0.016		inactive: 0.013	inactive: 0.087	inactive: 0.112
CNRIP1 (UniProt Q96F85)	inactive: -0.029	inactive: -0.025	inactive: 0.028	inactive: -0.118			inactive: 0.113	inactive: 0.321	inactive: 0.045	inactive: 0.112	inactive: -0.009	inactive: -0.016		inactive: 0.064	inactive: 0.128	inactive: 0.182	inactive: -0.075	inactive: 0.204	inactive: 0.012	inactive: -0.017
COPS2 (UniProt P61201)					inactive: -0.019	inactive: 0.026			inactive: 0.019				inactive: 0.127	inactive: -0.046	inactive: -0.035		inactive: -0.097			
CORO6 isoform 5 (UniProt Q6QEF8)			inactive: 0.035					inactive: -0.003	inactive: -0.065				inactive: -0.101		inactive: 0.113		inactive: -0.037			
CPLANE2 (UniProt Q9BU20)	inactive: -0.333	inactive: -0.134		inactive: -0.226			inactive: 0.178			inactive: -0.319	inactive: -0.114	inactive: 0.178			inactive: 0	inactive: 0.115				
CPEB3 (UniProt Q8NE35)	inactive: -0.023	inactive: 0.002		inactive: 0.017			inactive: 0.082			inactive: -0.027	inactive: -0.141	inactive: 0.066			inactive: -0.075	inactive: 0.073				
CNTROB isoform 2 (UniProt Q8N137)	inactive: 0.16	inactive: 0.036										inactive: -0.166		inactive: 0.175						
CPA4 (UniProt Q9UI42)	inactive: -0.035	inactive: -0.074	inactive: 0.398	inactive: 0.019			inactive: -0.059	inactive: -0.087	inactive: -0.245	inactive: -0.099	inactive: 0.124	inactive: 0.184			inactive: 0.05	inactive: 0.074	inactive: -0.525			
COQ8B (UniProt Q96D53)	inactive: -0.143	inactive: -0.063			inactive: -0.272	inactive: 0.178						inactive: 0.151	inactive: 0.162		inactive: 0.01					
COL6A3 (UniProt P12111)	inactive: -0.101	inactive: 0.14	inactive: -0.232	inactive: -0.108			inactive: -0.071	inactive: -0.087		inactive: 0.174	inactive: -0.132	inactive: 0.047	inactive: -0.066	inactive: -0.099	inactive: -0.021	active: -0.54				
COX14 (UniProt Q96I36)	inactive: -0.021	inactive: -0.013							inactive: -0.001			inactive: 0.018	inactive: -0.047		inactive: -0.088		inactive: -0.033			
COP1 (UniProt Q8NHY2)	inactive: -0.113	inactive: -0.044		inactive: 0.022			inactive: 0.004		inactive: -0.041	inactive: 0.039	inactive: -0.053	inactive: 0.169	inactive: -0.06	inactive: 0.036	inactive: -0.009	inactive: -0.085	inactive: 0.027			
CRACR2B (UniProt Q8N4Y2)	inactive: 0.057	inactive: -0.11										inactive: -0.078		inactive: 0.215						
COMMD6 isoform 2 (UniProt Q7Z4G1)	inactive: 0.031	inactive: -0.06	inactive: 0.163	inactive: 0.078	inactive: 0.121	inactive: 0.127	inactive: -0.019	inactive: 0.021	inactive: 0.003	inactive: 0.011	inactive: -0.087	inactive: 0.028	inactive: -0.104	inactive: 0.04	inactive: 0	inactive: 0.053	inactive: 0.215			
COL12A1 (UniProt Q99715)	inactive: -0.016	inactive: 0.01			inactive: 0.059	inactive: 0.065			inactive: 0.72			inactive: 0.024		inactive: -0.224	active: 1.57		inactive: 0.005	inactive: -0.009	inactive: -0.008	inactive: -0.053
CNNM2 (UniProt Q9H8M5)	inactive: -0.109	inactive: 0.038		inactive: -0.106	inactive: 0.045	inactive: 0.201	inactive: 0.098		inactive: 0.004	inactive: 0.31	active: 0.348	inactive: 0.048		inactive: -0.031	inactive: -0.054	inactive: -0.157	inactive: -0.015	inactive: -0.206	inactive: 0.058	inactive: -0.029
CPTP (UniProt Q5TA50)	inactive: 0	inactive: 0.104		inactive: -0.045	inactive: 0.062	inactive: 0	inactive: 0.034			inactive: 0.031	inactive: -0.12	inactive: 0.001	inactive: 0.106	inactive: -0.138	inactive: -0.023	inactive: 0.08		inactive: 0.061	inactive: 0.011	inactive: -0.002
CORO7 (UniProt P57737)	inactive: -0.001	inactive: 0.291		inactive: -0.023	inactive: -0.07	inactive: 0.064	inactive: 0.091			inactive: -0.039	inactive: 0.06	inactive: -0.076	inactive: -0.202	inactive: 0.067	inactive: -0.229	inactive: 0.134		inactive: 0.01	inactive: -0.089	inactive: -0.047
COPS9 (UniProt Q8WXC6)	inactive: -0.01	inactive: -0.362		inactive: 0.081			inactive: -0.371		inactive: -0.059	inactive: 0.146	inactive: -0.213	inactive: 0.173				inactive: 0.172	inactive: -0.184			
COL1A1 (UniProt P02452)	inactive: 0.041	inactive: 0.085										inactive: 0.001								
CNK3/IPCEF1 isoform 2 (UniProt G9CGD6)	inactive: 0.065	inactive: 0.038		inactive: -0.051	inactive: 0.014	inactive: -0.048	inactive: 0.105			inactive: 0.215	inactive: -0.138	inactive: -0.096		inactive: 0.075		inactive: 0		inactive: -0.008	inactive: -0.082	inactive: 0.053
